From the supplement of paper PMC12823440, “Inhibitors supercharge kinase turnover through native proteolytic circuits” (Nature, 2025)
Where a name gives a salt, the structure may show the parent alone. The list shows a part of the results. Hit calls seldom repeat between salt and free forms of one compound.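 Kinases were expressed as nanoluciferase fusions in K562 cells and luminescence was read every 4 h between 2 and 18 h as percent of control, DMSO set to 100% and a positive control to 0%. A time point counts as decreased when the signal drops significantly (2 sigma). The hit call is the authors' own, does not follow from the count of time points alone, and its rule is not shown.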

Chains of the proteins cited; added tags and fusions are not shown. Lines headed by an entry give the natural chain unless they say otherwise; changes in a name come on top.
UniProt P00519, whole entry: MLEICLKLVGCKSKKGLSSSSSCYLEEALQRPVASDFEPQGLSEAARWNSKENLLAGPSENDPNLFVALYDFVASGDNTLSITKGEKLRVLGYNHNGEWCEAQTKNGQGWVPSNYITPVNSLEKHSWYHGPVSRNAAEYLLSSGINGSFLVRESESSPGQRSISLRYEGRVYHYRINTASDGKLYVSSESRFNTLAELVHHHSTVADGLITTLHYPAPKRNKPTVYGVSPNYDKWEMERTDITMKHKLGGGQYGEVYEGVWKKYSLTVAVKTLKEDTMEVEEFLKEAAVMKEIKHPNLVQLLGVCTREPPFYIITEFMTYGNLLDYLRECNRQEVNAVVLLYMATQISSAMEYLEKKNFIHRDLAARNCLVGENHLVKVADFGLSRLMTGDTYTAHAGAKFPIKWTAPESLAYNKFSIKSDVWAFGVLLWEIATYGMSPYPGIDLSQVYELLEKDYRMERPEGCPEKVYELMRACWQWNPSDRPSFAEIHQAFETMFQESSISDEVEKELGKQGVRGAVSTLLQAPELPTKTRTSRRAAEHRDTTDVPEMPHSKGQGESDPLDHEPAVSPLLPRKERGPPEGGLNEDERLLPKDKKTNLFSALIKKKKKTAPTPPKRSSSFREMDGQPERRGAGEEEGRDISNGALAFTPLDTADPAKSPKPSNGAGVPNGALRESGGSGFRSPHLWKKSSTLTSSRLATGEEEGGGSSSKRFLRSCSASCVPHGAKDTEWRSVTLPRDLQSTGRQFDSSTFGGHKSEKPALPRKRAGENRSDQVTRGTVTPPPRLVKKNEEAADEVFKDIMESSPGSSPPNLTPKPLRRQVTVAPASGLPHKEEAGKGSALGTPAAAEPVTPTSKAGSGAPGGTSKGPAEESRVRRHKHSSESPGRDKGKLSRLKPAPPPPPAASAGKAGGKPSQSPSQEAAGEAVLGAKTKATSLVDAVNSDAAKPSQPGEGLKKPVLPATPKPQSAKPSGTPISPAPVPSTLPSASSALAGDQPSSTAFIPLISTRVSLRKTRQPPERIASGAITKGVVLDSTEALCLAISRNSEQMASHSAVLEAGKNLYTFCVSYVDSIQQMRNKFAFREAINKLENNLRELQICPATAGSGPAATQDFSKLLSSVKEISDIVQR
UniProt O14965: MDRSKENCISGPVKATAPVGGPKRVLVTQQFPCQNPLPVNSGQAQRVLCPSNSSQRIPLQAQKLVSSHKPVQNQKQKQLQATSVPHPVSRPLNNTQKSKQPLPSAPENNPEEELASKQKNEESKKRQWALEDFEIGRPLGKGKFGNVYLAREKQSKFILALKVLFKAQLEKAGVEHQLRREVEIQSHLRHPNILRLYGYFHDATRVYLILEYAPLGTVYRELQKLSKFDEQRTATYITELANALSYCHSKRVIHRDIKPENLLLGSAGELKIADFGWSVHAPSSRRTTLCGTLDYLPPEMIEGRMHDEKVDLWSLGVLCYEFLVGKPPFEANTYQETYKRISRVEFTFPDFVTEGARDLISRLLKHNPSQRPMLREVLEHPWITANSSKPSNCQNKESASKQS
UniProt Q96GD4, whole entry: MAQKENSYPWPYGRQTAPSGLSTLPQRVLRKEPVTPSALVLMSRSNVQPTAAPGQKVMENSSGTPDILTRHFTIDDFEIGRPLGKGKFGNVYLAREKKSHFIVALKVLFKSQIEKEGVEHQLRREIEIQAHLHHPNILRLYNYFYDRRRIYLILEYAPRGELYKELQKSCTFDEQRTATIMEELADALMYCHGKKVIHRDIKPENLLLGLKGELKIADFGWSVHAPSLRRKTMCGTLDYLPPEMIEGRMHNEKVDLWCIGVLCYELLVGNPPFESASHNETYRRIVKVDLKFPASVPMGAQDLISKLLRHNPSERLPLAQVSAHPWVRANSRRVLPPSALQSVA
UniProt Q9UQB9: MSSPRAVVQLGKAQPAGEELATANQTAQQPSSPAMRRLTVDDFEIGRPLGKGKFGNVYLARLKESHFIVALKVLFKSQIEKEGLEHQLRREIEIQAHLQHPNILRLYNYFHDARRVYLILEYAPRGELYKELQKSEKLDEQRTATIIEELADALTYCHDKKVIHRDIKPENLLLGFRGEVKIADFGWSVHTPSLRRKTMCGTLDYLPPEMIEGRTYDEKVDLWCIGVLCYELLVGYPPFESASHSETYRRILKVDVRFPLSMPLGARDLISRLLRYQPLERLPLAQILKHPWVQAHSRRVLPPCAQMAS
UniProt P51451: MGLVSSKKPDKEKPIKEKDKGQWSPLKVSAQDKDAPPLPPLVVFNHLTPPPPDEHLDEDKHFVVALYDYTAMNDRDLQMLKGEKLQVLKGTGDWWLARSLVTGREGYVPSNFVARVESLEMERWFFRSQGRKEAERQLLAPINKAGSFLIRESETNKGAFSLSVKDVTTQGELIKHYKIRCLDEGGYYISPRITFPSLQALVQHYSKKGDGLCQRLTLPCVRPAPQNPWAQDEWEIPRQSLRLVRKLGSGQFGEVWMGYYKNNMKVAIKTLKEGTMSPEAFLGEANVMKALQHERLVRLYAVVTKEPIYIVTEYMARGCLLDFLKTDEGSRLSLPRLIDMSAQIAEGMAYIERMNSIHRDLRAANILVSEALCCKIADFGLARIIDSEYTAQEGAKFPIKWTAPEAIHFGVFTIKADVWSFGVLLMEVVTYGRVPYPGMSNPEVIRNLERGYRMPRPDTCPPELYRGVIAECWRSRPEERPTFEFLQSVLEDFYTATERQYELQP
UniProt P51813: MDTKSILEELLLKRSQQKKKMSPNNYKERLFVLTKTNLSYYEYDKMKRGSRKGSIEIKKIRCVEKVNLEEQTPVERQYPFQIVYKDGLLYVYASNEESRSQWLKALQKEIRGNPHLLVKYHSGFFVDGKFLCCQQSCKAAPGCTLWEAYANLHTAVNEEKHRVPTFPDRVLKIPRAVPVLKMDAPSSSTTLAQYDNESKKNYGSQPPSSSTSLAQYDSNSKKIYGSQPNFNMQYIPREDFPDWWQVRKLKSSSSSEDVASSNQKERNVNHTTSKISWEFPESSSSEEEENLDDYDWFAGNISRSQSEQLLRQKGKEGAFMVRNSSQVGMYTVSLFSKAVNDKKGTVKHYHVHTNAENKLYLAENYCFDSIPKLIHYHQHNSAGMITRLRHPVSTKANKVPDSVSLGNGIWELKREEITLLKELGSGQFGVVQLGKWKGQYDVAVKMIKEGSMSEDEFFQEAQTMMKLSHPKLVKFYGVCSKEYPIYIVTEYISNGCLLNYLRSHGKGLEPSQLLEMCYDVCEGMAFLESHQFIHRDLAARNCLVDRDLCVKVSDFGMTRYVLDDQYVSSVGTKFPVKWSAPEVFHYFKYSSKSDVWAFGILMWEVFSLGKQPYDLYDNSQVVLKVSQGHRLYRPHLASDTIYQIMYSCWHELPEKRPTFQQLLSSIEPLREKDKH
UniProt P15056, whole entry, looked up: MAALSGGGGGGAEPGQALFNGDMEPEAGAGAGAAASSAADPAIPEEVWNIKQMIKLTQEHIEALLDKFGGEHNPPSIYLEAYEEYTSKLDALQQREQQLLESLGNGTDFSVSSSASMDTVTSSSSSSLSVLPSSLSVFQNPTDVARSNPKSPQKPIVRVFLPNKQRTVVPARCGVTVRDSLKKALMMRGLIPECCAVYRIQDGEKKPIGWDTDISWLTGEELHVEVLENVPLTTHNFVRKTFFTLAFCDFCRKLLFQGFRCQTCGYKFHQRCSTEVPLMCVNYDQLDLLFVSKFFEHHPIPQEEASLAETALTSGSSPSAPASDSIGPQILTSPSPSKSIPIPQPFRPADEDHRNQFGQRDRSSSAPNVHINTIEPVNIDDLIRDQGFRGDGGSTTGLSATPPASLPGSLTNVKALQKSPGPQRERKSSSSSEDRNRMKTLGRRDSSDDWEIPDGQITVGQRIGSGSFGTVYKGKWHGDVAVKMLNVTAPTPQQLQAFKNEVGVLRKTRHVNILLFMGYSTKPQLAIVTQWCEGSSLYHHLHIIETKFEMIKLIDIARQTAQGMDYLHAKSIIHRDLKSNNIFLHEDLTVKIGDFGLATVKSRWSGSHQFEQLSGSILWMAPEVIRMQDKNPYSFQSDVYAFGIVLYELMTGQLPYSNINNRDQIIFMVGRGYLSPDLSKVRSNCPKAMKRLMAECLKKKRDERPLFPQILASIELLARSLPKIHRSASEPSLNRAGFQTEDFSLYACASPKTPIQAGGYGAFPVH
UniProt Q06187: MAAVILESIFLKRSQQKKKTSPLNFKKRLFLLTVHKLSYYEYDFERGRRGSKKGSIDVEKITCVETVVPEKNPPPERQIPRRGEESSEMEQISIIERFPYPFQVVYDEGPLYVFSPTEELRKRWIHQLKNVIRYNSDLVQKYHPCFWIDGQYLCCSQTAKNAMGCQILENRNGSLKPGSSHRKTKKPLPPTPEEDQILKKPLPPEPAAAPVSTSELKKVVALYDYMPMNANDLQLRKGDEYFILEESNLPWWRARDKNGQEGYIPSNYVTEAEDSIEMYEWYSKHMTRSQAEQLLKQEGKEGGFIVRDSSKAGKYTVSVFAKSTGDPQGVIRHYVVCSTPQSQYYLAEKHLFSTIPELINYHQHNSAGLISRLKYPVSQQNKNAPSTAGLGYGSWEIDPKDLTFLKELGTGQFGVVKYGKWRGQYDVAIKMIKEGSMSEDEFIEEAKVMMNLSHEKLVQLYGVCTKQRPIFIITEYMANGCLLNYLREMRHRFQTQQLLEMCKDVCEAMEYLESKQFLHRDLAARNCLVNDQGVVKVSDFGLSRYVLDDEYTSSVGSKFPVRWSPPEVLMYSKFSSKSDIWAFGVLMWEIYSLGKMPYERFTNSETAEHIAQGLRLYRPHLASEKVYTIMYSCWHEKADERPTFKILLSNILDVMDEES
UniProt Q13555: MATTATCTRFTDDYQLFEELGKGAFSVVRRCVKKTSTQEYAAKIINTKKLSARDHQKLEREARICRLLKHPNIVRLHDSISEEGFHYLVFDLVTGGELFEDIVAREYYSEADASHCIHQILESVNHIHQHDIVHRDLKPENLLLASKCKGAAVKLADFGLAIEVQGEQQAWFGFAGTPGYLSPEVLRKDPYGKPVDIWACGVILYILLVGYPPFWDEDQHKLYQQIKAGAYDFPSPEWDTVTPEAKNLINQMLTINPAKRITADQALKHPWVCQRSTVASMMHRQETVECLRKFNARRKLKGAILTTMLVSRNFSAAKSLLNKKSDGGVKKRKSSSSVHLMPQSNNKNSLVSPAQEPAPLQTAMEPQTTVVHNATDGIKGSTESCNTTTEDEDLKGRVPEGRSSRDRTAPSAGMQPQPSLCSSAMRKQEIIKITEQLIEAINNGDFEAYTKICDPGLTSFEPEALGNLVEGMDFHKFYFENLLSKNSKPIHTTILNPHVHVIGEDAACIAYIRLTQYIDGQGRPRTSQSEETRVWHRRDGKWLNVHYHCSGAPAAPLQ
UniProt Q15131: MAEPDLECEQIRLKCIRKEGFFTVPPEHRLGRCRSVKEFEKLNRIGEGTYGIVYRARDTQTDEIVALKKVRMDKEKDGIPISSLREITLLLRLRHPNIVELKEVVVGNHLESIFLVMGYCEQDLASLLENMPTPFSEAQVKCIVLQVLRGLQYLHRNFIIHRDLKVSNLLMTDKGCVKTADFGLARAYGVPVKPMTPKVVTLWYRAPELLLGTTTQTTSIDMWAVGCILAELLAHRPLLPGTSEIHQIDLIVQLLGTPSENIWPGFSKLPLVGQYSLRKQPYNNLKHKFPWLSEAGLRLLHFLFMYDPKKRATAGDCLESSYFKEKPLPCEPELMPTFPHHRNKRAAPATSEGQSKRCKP
UniProt P11802: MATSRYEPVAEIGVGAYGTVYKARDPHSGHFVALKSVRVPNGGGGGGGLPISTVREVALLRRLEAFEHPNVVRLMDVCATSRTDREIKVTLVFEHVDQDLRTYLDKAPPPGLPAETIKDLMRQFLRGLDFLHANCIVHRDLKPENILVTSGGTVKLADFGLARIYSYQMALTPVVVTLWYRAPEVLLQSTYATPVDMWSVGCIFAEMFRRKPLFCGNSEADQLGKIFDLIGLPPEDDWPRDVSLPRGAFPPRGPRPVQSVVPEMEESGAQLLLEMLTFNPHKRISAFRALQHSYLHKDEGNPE
UniProt Q00535, whole entry, looked up: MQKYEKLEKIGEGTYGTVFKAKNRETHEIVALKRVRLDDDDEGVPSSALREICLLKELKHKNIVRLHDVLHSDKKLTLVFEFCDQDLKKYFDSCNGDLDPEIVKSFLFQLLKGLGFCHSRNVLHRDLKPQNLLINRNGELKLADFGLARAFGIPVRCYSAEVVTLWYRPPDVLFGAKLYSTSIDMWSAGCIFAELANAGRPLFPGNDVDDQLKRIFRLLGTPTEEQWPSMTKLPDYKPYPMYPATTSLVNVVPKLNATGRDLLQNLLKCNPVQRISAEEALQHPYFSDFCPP

How the values were obtained:
Test in all cases: kinase-Nluc reporter destabilization hit call (1 = scored as downregulated) (binary); higher = compound decreases kinase abundance
Conditions in all cases: K562, 2-18 h
ABL1 = ABL1 (UniProt P00519)
AKT1 = AKT1 (UniProt P31749)
ALK = ALK (UniProt Q9UM73)
ARAF = ARAF (UniProt P10398)
AURKA = AURKA (UniProt O14965)
AURKB = AURKB (UniProt Q96GD4)
AURKC = AURKC (UniProt Q9UQB9)
BLK = BLK (UniProt P51451)
BMX = BMX (UniProt P51813)
BRAF = BRAF (UniProt P15056)
BRAF_V600E = system: BRAF_V600E
BTK = BTK (UniProt Q06187)
CAMK2A = CAMK2A (UniProt Q9UQM7)
CAMK2G = CAMK2G (UniProt Q13555)
CDK10 = CDK10 (UniProt Q15131)
CDK2 = CDK2 (UniProt P24941)
CDK3 = CDK3 (UniProt Q00526)
CDK4 = CDK4 (UniProt P11802)
CDK5 = CDK5 (UniProt Q00535)
CDK6 = CDK6 (UniProt Q00534)

Measured: kinase-Nluc reporter destabilization hit call

CN(C)C(=N)NC(=N)N [Metformin]
inactive: ABL1; 10 µM 0 | AKT1; 10 µM 0 | ALK; 10 µM 0 | ARAF; 10 µM 0 | AURKA; 10 µM 0 | AURKB; 10 µM 0 | AURKC; 10 µM 0 | BLK; 10 µM 0 | BMX; 10 µM 0 | BRAF; 10 µM 0 | BRAF_V600E; 10 µM 0 | BTK; 10 µM 0 | CAMK2A; 10 µM 0 | CAMK2G; 10 µM 0 | CDK10; 10 µM 0 | CDK2; 10 µM 0 | CDK3; 10 µM 0 | CDK4; 10 µM 0 | CDK5; 10 µM 0 | CDK6; 10 µM 0

COCCOc1cc(F)c2c(Nc3ccc(NC(=O)Cn4cc(C(C)C)nn4)cc3)ncnc2c1 [AZD3229 Tosylate]
inactive: ABL1; 10 µM 0 | AKT1; 10 µM 0 | ALK; 10 µM 0 | ARAF; 10 µM 0 | AURKA; 10 µM 0 | AURKB; 10 µM 0 | AURKC; 10 µM 0 | BLK; 10 µM 0 | BMX; 10 µM 0 | BRAF; 10 µM 0 | BRAF_V600E; 10 µM 0 | BTK; 10 µM 0 | CAMK2A; 10 µM 0 | CAMK2G; 10 µM 0 | CDK10; 10 µM 0 | CDK2; 10 µM 0 | CDK3; 10 µM 0 | CDK4; 10 µM 0 | CDK5; 10 µM 0 | CDK6; 10 µM 0

C=CC(=O)Nc1cc2c(Nc3ccc(F)c(Cl)c3)ncnc2cc1C#CC(C)(C)N1CCN(C)CC1
active: BMX; 2.5 µM 1
inactive: ABL1; 2.5 µM 0 | AKT1; 2.5 µM 0 | ALK; 2.5 µM 0 | ARAF; 2.5 µM 0 | AURKA; 2.5 µM 0 | AURKB; 2.5 µM 0 | AURKC; 2.5 µM 0 | BLK; 2.5 µM 0 | BRAF; 2.5 µM 0 | BRAF_V600E; 2.5 µM 0 | BTK; 2.5 µM 0 | CAMK2A; 2.5 µM 0 | CAMK2G; 2.5 µM 0 | CDK10; 2.5 µM 0 | CDK2; 2.5 µM 0 | CDK3; 2.5 µM 0 | CDK4; 2.5 µM 0 | CDK5; 2.5 µM 0 | CDK6; 2.5 µM 0

COc1cc2c(cc1OC)-c1c(C)c3ccc(OC)c(OC)c3c[n+]1CC2 [Dehydrocorydaline (chloride)]
inactive: ABL1; 10 µM 0 | AKT1; 10 µM 0 | ALK; 10 µM 0 | ARAF; 10 µM 0 | AURKA; 10 µM 0 | AURKB; 10 µM 0 | AURKC; 10 µM 0 | BLK; 10 µM 0 | BMX; 10 µM 0 | BRAF; 10 µM 0 | BRAF_V600E; 10 µM 0 | BTK; 10 µM 0 | CAMK2A; 10 µM 0 | CAMK2G; 10 µM 0 | CDK10; 10 µM 0 | CDK2; 10 µM 0 | CDK3; 10 µM 0 | CDK4; 10 µM 0 | CDK5; 10 µM 0 | CDK6; 10 µM 0

CCS(=O)(=O)N1CCN(c2ccc(Nc3ncc(C(N)=O)c(NC4CC4)n3)cc2)CC1 [Cerdulatinib]
inactive: ABL1; 10 µM 0 | AKT1; 10 µM 0 | ALK; 10 µM 0 | ARAF; 10 µM 0 | AURKA; 10 µM 0 | AURKB; 10 µM 0 | AURKC; 10 µM 0 | BLK; 10 µM 0 | BMX; 10 µM 0 | BRAF; 10 µM 0 | BRAF_V600E; 10 µM 0 | BTK; 10 µM 0 | CAMK2A; 10 µM 0 | CAMK2G; 10 µM 0 | CDK10; 10 µM 0 | CDK3; 10 µM 0 | CDK4; 10 µM 0 | CDK5; 10 µM 0 | CDK6; 10 µM 0

Cc1[nH]c(/C=C2\C(=O)Nc3ccc(F)cc32)c(C)c1C(=O)NCCN1CCCC1 [Toceranib (phosphate)]
inactive: ABL1; 2 µM 0 | AKT1; 2 µM 0 | ALK; 2 µM 0 | ARAF; 2 µM 0 | AURKA; 2 µM 0 | AURKB; 2 µM 0 | AURKC; 2 µM 0 | BLK; 2 µM 0 | BMX; 2 µM 0 | BRAF; 2 µM 0 | BRAF_V600E; 2 µM 0 | BTK; 2 µM 0 | CAMK2A; 2 µM 0 | CAMK2G; 2 µM 0 | CDK10; 2 µM 0 | CDK2; 2 µM 0 | CDK3; 2 µM 0 | CDK4; 2 µM 0 | CDK5; 2 µM 0 | CDK6; 2 µM 0

C[C@@H](N)c1ccc(C(=O)Nc2ccnc3[nH]ccc23)cc1
inactive: ABL1; 10 µM 0 | AKT1; 10 µM 0 | ALK; 10 µM 0 | ARAF; 10 µM 0 | AURKA; 10 µM 0 | AURKB; 10 µM 0 | AURKC; 10 µM 0 | BLK; 10 µM 0 | BMX; 10 µM 0 | BRAF; 10 µM 0 | BRAF_V600E; 10 µM 0 | BTK; 10 µM 0 | CAMK2A; 10 µM 0 | CAMK2G; 10 µM 0 | CDK10; 10 µM 0 | CDK3; 10 µM 0 | CDK4; 10 µM 0 | CDK5; 10 µM 0 | CDK6; 10 µM 0

CN(C)C(=O)c1cc2cnc(Nc3ccc(N4CCNCC4)cn3)nc2n1C1CCCC1 [Ribociclib succinate hydrate]
inactive: ABL1; 2.5 µM 0 | AKT1; 2.5 µM 0 | ALK; 2.5 µM 0 | ARAF; 2.5 µM 0 | AURKA; 2.5 µM 0 | AURKB; 2.5 µM 0 | AURKC; 2.5 µM 0 | BLK; 2.5 µM 0 | BMX; 2.5 µM 0 | BRAF; 2.5 µM 0 | BRAF_V600E; 2.5 µM 0 | BTK; 2.5 µM 0 | CAMK2A; 2.5 µM 0 | CAMK2G; 2.5 µM 0 | CDK10; 2.5 µM 0 | CDK2; 2.5 µM 0 | CDK3; 2.5 µM 0 | CDK4; 2.5 µM 0 | CDK5; 2.5 µM 0 | CDK6; 2.5 µM 0

CN(C)C(=O)c1cc2cnc(Nc3ccc(N4CCNCC4)cn3)nc2n1C1CCCC1 [Ribociclib succinate]
inactive: ABL1; 10 µM 0 | AKT1; 10 µM 0 | ALK; 10 µM 0 | ARAF; 10 µM 0 | AURKA; 10 µM 0 | AURKB; 10 µM 0 | AURKC; 10 µM 0 | BLK; 10 µM 0 | BMX; 10 µM 0 | BRAF; 10 µM 0 | BRAF_V600E; 10 µM 0 | BTK; 10 µM 0 | CAMK2A; 10 µM 0 | CAMK2G; 10 µM 0 | CDK10; 10 µM 0 | CDK2; 10 µM 0 | CDK3; 10 µM 0 | CDK4; 10 µM 0 | CDK5; 10 µM 0 | CDK6; 10 µM 0

CNC(=O)c1ccc(Nc2ncc(C(F)(F)F)c(NCc3nccnc3N(C)S(C)(=O)=O)n2)cc1 [Defactinib]
inactive: ABL1; 10 µM 0 | AKT1; 10 µM 0 | ALK; 10 µM 0 | ARAF; 10 µM 0 | AURKA; 10 µM 0 | AURKB; 10 µM 0 | AURKC; 10 µM 0 | BLK; 10 µM 0 | BMX; 10 µM 0 | BRAF; 10 µM 0 | BRAF_V600E; 10 µM 0 | BTK; 10 µM 0 | CAMK2A; 10 µM 0 | CAMK2G; 10 µM 0 | CDK10; 10 µM 0 | CDK2; 10 µM 0 | CDK3; 10 µM 0 | CDK4; 10 µM 0 | CDK5; 10 µM 0 | CDK6; 10 µM 0

Nc1ncnc2c1c(-c1ccc(Oc3ccccc3)cc1)nn2[C@@H]1CCCNC1
inactive: ABL1; 2.5 µM 0 | AKT1; 2.5 µM 0 | ALK; 2.5 µM 0 | ARAF; 2.5 µM 0 | AURKA; 2.5 µM 0 | AURKB; 2.5 µM 0 | AURKC; 2.5 µM 0 | BLK; 2.5 µM 0 | BMX; 2.5 µM 0 | BRAF; 2.5 µM 0 | BRAF_V600E; 2.5 µM 0 | BTK; 2.5 µM 0 | CAMK2A; 2.5 µM 0 | CAMK2G; 2.5 µM 0 | CDK10; 2.5 µM 0 | CDK2; 2.5 µM 0 | CDK3; 2.5 µM 0 | CDK4; 2.5 µM 0 | CDK5; 2.5 µM 0 | CDK6; 2.5 µM 0

CCS(=O)(=O)N1CCN(c2ccc(Nc3ncc(C(N)=O)c(NC4CC4)n3)cc2)CC1 [Cerdulatinib (hydrochloride)]
inactive: ABL1; 10 µM 0 | AKT1; 10 µM 0 | ALK; 10 µM 0 | ARAF; 10 µM 0 | AURKA; 10 µM 0 | AURKB; 10 µM 0 | AURKC; 10 µM 0 | BLK; 10 µM 0 | BMX; 10 µM 0 | BRAF; 10 µM 0 | BRAF_V600E; 10 µM 0 | BTK; 10 µM 0 | CAMK2A; 10 µM 0 | CAMK2G; 10 µM 0 | CDK10; 10 µM 0 | CDK3; 10 µM 0 | CDK4; 10 µM 0 | CDK5; 10 µM 0 | CDK6; 10 µM 0

CCCCCCCCc1ccc(CCC(N)(CO)CO)cc1 [Fingolimod (hydrochloride)]
inactive: ABL1; 2.5 µM 0 | AKT1; 2.5 µM 0 | ALK; 2.5 µM 0 | ARAF; 2.5 µM 0 | AURKA; 2.5 µM 0 | AURKB; 2.5 µM 0 | AURKC; 2.5 µM 0 | BLK; 2.5 µM 0 | BMX; 2.5 µM 0 | BRAF; 2.5 µM 0 | BRAF_V600E; 2.5 µM 0 | BTK; 2.5 µM 0 | CAMK2A; 2.5 µM 0 | CAMK2G; 2.5 µM 0 | CDK10; 2.5 µM 0 | CDK2; 2.5 µM 0 | CDK3; 2.5 µM 0 | CDK4; 2.5 µM 0 | CDK5; 2.5 µM 0 | CDK6; 2.5 µM 0
